Measurements reported in PubChem BioAssay AID1259424 (University of Nebraska Medical Center, 2018)
Screen: 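Seek colon cancer survival genes behaving like KSR1, using a six-gene signature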 (primary screen). System: human HCT116 colon cancer cells. Reagent: siRNA pool against human genes, 50 nM. Detection: 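Six signature mRNAs by branched-DNA multiplex assay, scaled to two housekeeping genes and non-targeting median, log2; matched to mean KSR1 knockdown profile by Pearson correlation and euclidean distance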. Scale: mean correlation with KSR1 profile: higher = expression change more like KSR1 knockdown; mean distance from KSR1 profile: higher = expression change less like KSR1 knockdown.
Here is an unselected part of about 14,000 reagents. 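Higher correlation or smaller distance means closer resemblance to KSR1 loss; control wells, including KSR1 knockdowns, recur on many plates.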 Not all columns of the deposit are shown. Reagent sequences are not shown. Not stated in the record: the time to read-out.

POLE2: mean correlation with KSR1 profile = 0.644; mean distance from KSR1 profile = 2.15
PTCH2: mean correlation with KSR1 profile = -0.457; mean distance from KSR1 profile = 2.29
GUCY1B2: mean correlation with KSR1 profile = -0.229; mean distance from KSR1 profile = 2.55
PLEKHH3: mean correlation with KSR1 profile = 0.577; mean distance from KSR1 profile = 1.28
ELAPOR1: mean correlation with KSR1 profile = -0.144; mean distance from KSR1 profile = 3.15
AP5M1: mean correlation with KSR1 profile = -0.493; mean distance from KSR1 profile = 1.63
NF2: mean correlation with KSR1 profile = -0.299; mean distance from KSR1 profile = 2.52
E2F2: mean correlation with KSR1 profile = -0.509; mean distance from KSR1 profile = 2.1
CD101: mean correlation with KSR1 profile = -0.413; mean distance from KSR1 profile = 3.83
FHIP1B: mean correlation with KSR1 profile = 0.635; mean distance from KSR1 profile = 1.69
BICC1: mean correlation with KSR1 profile = 0.506; mean distance from KSR1 profile = 1.97
DHRS7: mean correlation with KSR1 profile = -0.402; mean distance from KSR1 profile = 2.26
CDIN1: mean correlation with KSR1 profile = 0.0255; mean distance from KSR1 profile = 2.54
ERVMER34-1: mean correlation with KSR1 profile = 0.267; mean distance from KSR1 profile = 2.75
GPX7: mean correlation with KSR1 profile = -0.215; mean distance from KSR1 profile = 4.08
ST6GALNAC4: mean correlation with KSR1 profile = 0.298; mean distance from KSR1 profile = 1.48
ARHGAP21: mean correlation with KSR1 profile = -0.37; mean distance from KSR1 profile = 1.82
TUBB: mean correlation with KSR1 profile = 0.636; mean distance from KSR1 profile = 1.49
ATP1B3: mean correlation with KSR1 profile = 0.257; mean distance from KSR1 profile = 2.72
FRMD8P1: mean correlation with KSR1 profile = 0.0496; mean distance from KSR1 profile = 2.47
YME1L1: mean correlation with KSR1 profile = -0.0691; mean distance from KSR1 profile = 2.21
CCR4: mean correlation with KSR1 profile = 0.779; mean distance from KSR1 profile = 1.23
LPAR2: mean correlation with KSR1 profile = 0.775; mean distance from KSR1 profile = 1.43
HAUS6: mean correlation with KSR1 profile = 0.268; mean distance from KSR1 profile = 2.75
TRIM26: mean correlation with KSR1 profile = 0.594; mean distance from KSR1 profile = 1.06
SDK2: mean correlation with KSR1 profile = 0.446; mean distance from KSR1 profile = 1.06
MYOM1: mean correlation with KSR1 profile = -0.396; mean distance from KSR1 profile = 3.77
TNS2: mean correlation with KSR1 profile = -0.519; mean distance from KSR1 profile = 2.15
SH3GL3: mean correlation with KSR1 profile = -0.478; mean distance from KSR1 profile = 5.18
SLC23A2: mean correlation with KSR1 profile = -0.41; mean distance from KSR1 profile = 2.16
PMVK: mean correlation with KSR1 profile = -0.148; mean distance from KSR1 profile = 3.38
SERPINI1: mean correlation with KSR1 profile = -0.0555; mean distance from KSR1 profile = 1.76
MRTFA: mean correlation with KSR1 profile = 0.659; mean distance from KSR1 profile = 1.05
IMPACT: mean correlation with KSR1 profile = -0.477; mean distance from KSR1 profile = 1.96
SERPINE1: mean correlation with KSR1 profile = -0.702; mean distance from KSR1 profile = 1.84
SERPINF1: mean correlation with KSR1 profile = 0.378; mean distance from KSR1 profile = 3.91
